Source: PubChem BioAssay AID1347076 (National Center for Advancing Translational Sciences (NCATS), 2019)
About 13,000 (3.2%) of roughly 400,000 compounds were called active. Inconclusive means that the source gave no clear call. Such entries were picked first, then a sample of the others. The call rests on the fitted dose curve; in most records, active means well fitted cell-killing curve with a large enough effect; inconclusive means small, poorly fitted or top-dose-only effect, or effect the other way; inactive means flat fitted curve, though single readings scatter. Potencies of inconclusive entries are doubtful fits and often do not repeat.

Experiment: qHTS assay for MDR1-selective chemotherapeutics: Primary screen using the drug-selected MDR subline cells KB-V1; further: nearly all actives have a fitted effect of over 60% in size
Details: KB-V1 MDR cells viability, CellTiter-Glo, 72 h; series mostly up to 46.1 µM
In short: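 Following 72 h at 37 degrees C with compound, KB-V1 cell viability was read by CellTiter-Glo luminescence, medium being phenol-red-free DMEM plus 10% FBS; concentration-response parameters came from normalized, curve-fitted qHTS data.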
Potency means the concentration at half of the fitted maximal effect.

SMILES	Potency
Cc1cc(C)c(C(=O)COC(=O)c2cc([N+](=O)[O-])ccc2N2CCOCC2)cc1C	active: 18.4 µM
CCN1CCN(C(=O)CS(=O)(=O)Cc2nc(-c3ccccc3C)oc2C)CC1	inconclusive: 29.1 µM [cytotoxic, single point]
COc1cccc(NC(=O)CCc2nc(-c3cccs3)no2)c1	inactive
CC(=O)C[C@@H]1OC[C@H](C)N1S(=O)(=O)c1ccc(C)cc1	inactive
Cc1ccc(S(=O)(=O)N(CC(=O)NCc2ccccn2)c2ccc(Cl)cc2)cc1	inconclusive: 3.66 µM [cytotoxic, full curve, poor fit]
CSc1ncc(Cl)c(C(=O)Nc2c(C(=O)c3ccc(C)c(F)c3)oc3ccccc23)n1	inactive
O=S(=O)(c1ccccc1)N1CCN(c2nc(-c3cccnc3)nc3ccccc23)CC1	inconclusive: 25.9 µM [cytotoxic, single point]
O=C1CC(N2CCN(Cc3ccc4c(c3)OCO4)CC2)C(=O)N1c1cccc2ccccc12 (stereo not drawn)	inconclusive: 18.4 µM [rising, partial curve]
CCC(C)Sc1cccc(-c2nc3ccc(C)cn3c2NC2CCCCC2)c1 (stereo not drawn)	inconclusive: 10.3 µM [cytotoxic, partial curve]
O=C(COC(=O)C1CCN(c2ccc(C(F)(F)F)cn2)CC1)Nc1ccc(Cl)cc1	inconclusive: 18.4 µM [rising, single point]
CCCCN(C=O)c1c(CC)nc2ccc(C(=O)N3CCCCC3)cn12	inactive
CCOc1cc(OCC)nc(S(C)(=O)=O)n1	inactive
O=C1C=C(O)C(n2cncn2)C(c2ccc3c(c2)OCO3)C1 (stereo not drawn)	inactive
CC(C)CNS(=O)(=O)c1ccc(Br)cc1N1CCC[C@@H]1CO	inactive
Cc1cc(C)cc(C(=O)NCC(=O)N2CCN(C(c3ccccc3)c3ccccc3)CC2)c1	active: 18.4 µM
O=C1CCCC2=C1C(c1ccco1)Nc1ccc3ccccc3c12 (stereo not drawn)	active: 20.6 µM
O=c1c2ccccc2n2c(=S)[nH]nc2n1-c1ccccc1	inactive
CCn1c(C)cc2c(c1=O)C(c1ccccc1Br)C(C#N)=C(N)O2 (stereo not drawn)	inconclusive: 16.4 µM [cytotoxic, single point]
Cc1cccc(N(C(=O)c2snc(C(N)=O)c2N)C(C(=O)NCC2CCCO2)c2cccs2)c1 (stereo not drawn)	inactive
CC(=O)N1CCN(c2ccc(Oc3nnnn3-c3ccccc3)cc2)CC1	inconclusive: 29.1 µM [cytotoxic, single point]
CC(C(=O)N(C)C1CCS(=O)(=O)C1)N1C(=O)/C(=C/c2ccc(F)cc2)SC1=S (stereo not drawn)	inactive
CCOc1ccc(NC(=O)CSC2=Nc3ccccc3C3=NC(CC(=O)NCc4cccs4)C(=O)N23)cc1 (stereo not drawn)	inactive
Oc1ccc(/C=N/N(c2ccccc2)c2ccccc2)cc1O	inactive
O=C(OCc1ccc(O)cc1)c1c(-c2ccsc2)oc2ccc(N3CCOCC3)cc12	inconclusive: 29.1 µM [cytotoxic, single point]
O=c1[nH]cnc(O)c1C(c1ccc2c(c1)OCO2)c1c(O)nc[nH]c1=O	inactive

Reformatted: entries from further up.
SMILES,Potency
CCN1CCN(C(=O)CS(=O)(=O)Cc2nc(-c3ccccc3C)oc2C)CC1,"inconclusive: 29.1 µM [cytotoxic, single point]"
O=c1c2ccccc2n2c(=S)[nH]nc2n1-c1ccccc1,inactive

The list goes on:

SMILES	Potency
Fc1ccc(/C=C2\CCCC3=C2Nc2ncnn2C3c2ccc(F)cc2)cc1 (stereo not drawn)	inconclusive: 14.6 µM [cytotoxic, partial curve, poor fit]
Cc1nc(N(C)C2CCCCC2)c2nnn(Cc3ccc(F)cc3)c2n1	inconclusive: 29.1 µM [cytotoxic, single point]
Cc1noc(C)c1S(=O)(=O)N1CCC(C(=O)c2ccccc2)CC1	inactive
Cc1ccc(NC2CCCN(C(=O)c3snnc3C)C2)cc1C (stereo not drawn)	inactive
O=C(CCS(=O)(=O)c1ccc(Cl)cc1)NCCc1c[nH]c2ccccc12	inconclusive: 20.6 µM [cytotoxic, single point]
CCCN(CCC)C(=O)c1cc2c(=O)n3cccc(C)c3nc2s1	inconclusive: 5.17 µM [cytotoxic, full curve, poor fit]
CC1=C(c2ccc(C)c(C)c2)S(=O)(=O)N=C1N1CCC(C(=O)NC(C)c2ccccc2)CC1 (stereo not drawn)	inactive
COc1ccc(C(C(=O)NC2CCCCC2)N(C(=O)CCl)c2ccc(C)cc2)cc1 (stereo not drawn)	inconclusive: 16.4 µM [cytotoxic, single point]
COc1ccccc1-n1c(=S)sc2c(=O)n(Cc3ccco3)c(SC)nc21	active: 14.6 µM
O=C(NN=C1CCCC1)c1cc(Cl)cc(Cl)c1O	inactive
CC1=NN(C(N)=S)C(=O)C1N=Nc1cccc([N+](=O)[O-])c1 (stereo not drawn)	inactive
CCOC(=O)C1(Cc2cccc(Cl)c2)CCCN(C(=O)CCSC)C1 (stereo not drawn)	inconclusive: 11.6 µM [cytotoxic, partial curve]
Cc1cc(=O)c2cc(Br)ccc2[nH]1	active: 16.4 µM
O=C(/C=C/c1ccccc1)NCCCNC(=O)/C=C/c1ccccc1	inconclusive: 16.4 µM [cytotoxic, single point]
COCCNc1c(-c2ccc(OC)c(OC)c2)nc2ccc(Cl)cn12	inactive
COc1ccc(-c2noc(-c3cccnc3)n2)cc1OC	inconclusive: 3.26 µM [cytotoxic, partial curve, poor fit]
O=C(NC1CCCCC1)C(c1ccncc1)N(Cc1ccccc1)C(=O)c1ccc(-c2ccccc2)[nH]1 (stereo not drawn)	active: 23.1 µM
Fc1ccccc1/C=N/NC(=S)Nc1ccc(Cl)cc1Cl	active: 1.46 µM
Cc1ccc(C)c(S(=O)(=O)c2c(N)n(/N=C/c3ccco3)c3nc4ccccc4nc23)c1	inconclusive: 5.17 µM [cytotoxic, full curve, poor fit]
CC(C)C1C(=O)N(Cc2cn(CC3CCCCC3)nn2)CCS(=O)(=O)N1Cc1ccc(-c2ccc(F)cc2)cc1 (stereo not drawn)	inconclusive: 20.6 µM [cytotoxic, partial curve]
CC1=C(C(=O)N2CCCCCC2)CC(CC(=O)NCCCCc2ccccc2)C(=O)N1CCC1=CCCCC1 (stereo not drawn)	active: 16.4 µM
COc1cc(-c2nnc(Sc3ccc(C(F)(F)F)cc3[N+](=O)[O-])o2)cc(OC)c1OC	inactive
CCc1ccc(Nc2n[n+](-c3ccccc3)c(-c3cc(OC)c(OC)cc3Br)s2)cc1	inactive
COc1ccc2nc(N(Cc3ccccc3)C(=O)CCNC(C)=O)sc2c1	inconclusive: 23.1 µM [cytotoxic, single point]
O=C(CCCCl)Nc1c2c(nn1-c1ccccc1)CSC2	inconclusive: 20.6 µM [rising, single point]

Of the compounds above, these have a nitro group on carbon:
SMILES	Potency
Cc1cc(C)c(C(=O)COC(=O)c2cc([N+](=O)[O-])ccc2N2CCOCC2)cc1C	active: 18.4 µM
CC1=NN(C(N)=S)C(=O)C1N=Nc1cccc([N+](=O)[O-])c1 (stereo not drawn)	inactive
COc1cc(-c2nnc(Sc3ccc(C(F)(F)F)cc3[N+](=O)[O-])o2)cc(OC)c1OC	inactive

Further entries.

SMILES	Potency
COc1ccc(CNC(=O)Cc2c(C(=O)O)c(C)cn2C)cc1	inconclusive: 4.61 µM [rising, partial curve, poor fit]
Clc1ccc(CN2CCN(c3ncnc4sc5c(c34)CCCC5)CC2)cc1Cl	inconclusive: 5.17 µM [rising, full curve]
O=[N+]([O-])c1ccc([N+](=O)[O-])c(Nc2ccc(N3CCOCC3)cc2)c1	inconclusive: 29.1 µM [rising, single point]
CC(=O)C1=C(Nc2ccccc2)CC(C)(O)C(C(C)=O)C1c1ccccc1 (stereo not drawn)	inactive
CC(C)CC(NC(N)=O)C(=O)NCCc1ccc(Cl)cc1 (stereo not drawn)	inactive
COc1ccc(NC(=O)CCC2CCCCC2)cc1S(=O)(=O)N1CCCCC1	active: 3.26 µM
Cc1c(C(=O)N2CCC(C)CC2)sc2ncnc(N(C)c3ccccc3)c12	inconclusive: 9.2 µM [cytotoxic, partial curve]
CCn1c(CN2CCN(c3ccc(Cl)cc3)CC2)nc2ccccc21	inconclusive: 11.2 µM [cytotoxic, partial curve]
CS(=O)(=O)N1CCC(Oc2ccccc2C(=O)N2CCNC(=O)C2)CC1	inconclusive: 25.9 µM [rising, single point]
COC(=O)[C@]12CCCCC=C1N(Cc1ccccc1)C(=O)[C@H](CC(=O)NCCCCc1ccccc1)C2	inconclusive: 11.6 µM [cytotoxic, partial curve]
COc1ccc(CCN2C(=O)CSC2=Nc2ccc(C(C)C)cc2)cc1OC	active: 3.26 µM
CCNc1ccc(S(=O)(=O)N(C)C)cc1NCC(=O)Nc1ccc(Br)cc1F	active: 16.4 µM
CC[C@@]12C(=O)N(c3cccc(F)c3)C(=O)N1[C@H](c1ccc(F)cc1)[C@@H]1C(=O)N(C3CCCCC3)C(=O)[C@@H]12	inconclusive: 29.1 µM [rising, single point]
CO[C@H]1CN(C)C(=O)c2ccc(NS(=O)(=O)c3ccccc3F)cc2OC[C@H](C)NC[C@@H]1C	inactive
CCN(c1ccccc1)S(=O)(=O)c1ccc(Cl)c(C(=O)NCC2CCCO2)c1 (stereo not drawn)	inconclusive: 29.1 µM [cytotoxic, single point]
Cc1ccc2c(CC(=O)Nc3ccc4nc(N5CCOCC5)sc4c3)coc2c1	inactive
Cc1cccc(-c2cc3c(N=O)c4ccccc4c-3n[nH]2)c1	inconclusive: 10.3 µM [cytotoxic, partial curve]
Cc1cccc(/C=C/c2nc3ccccc3c(=O)[nH]2)c1	inconclusive: 14.6 µM [cytotoxic, partial curve, poor fit]
CC(=O)N1c2ccc(S(=O)(=O)N3CCC(C(=O)N4CCC(C)CC4)CC3)cc2CC1C (stereo not drawn)	inactive
C/C=C(/C(=C/C)c1ccc(O)cc1)c1ccc(O)cc1	inconclusive: 18.4 µM [cytotoxic, single point]
Clc1ccc(N(CC2CO2)CC2CO2)cc1 (stereo not drawn)	inconclusive: 13 µM [cytotoxic, partial curve]
Cc1cccc(-c2nnc(-c3cccc(NC(=O)Cc4cccs4)c3)o2)c1	active: 20.6 µM
O=C(Cn1cc(C(=O)C2CCCCC2)c2ccccc21)Nc1ccccc1Cl	inconclusive: 18.4 µM [cytotoxic, single point]
